Laboratory results: article PMC4433056
No constants are given. Whether binding was seen depends on the method and setting. Binding calls can cover weak binding; strength is not graded here.

Chains of the proteins cited; added tags and fusions are not shown. Lines headed by an entry give the natural chain unless they say otherwise; changes in a name come on top.
UniProt Q9QYM5: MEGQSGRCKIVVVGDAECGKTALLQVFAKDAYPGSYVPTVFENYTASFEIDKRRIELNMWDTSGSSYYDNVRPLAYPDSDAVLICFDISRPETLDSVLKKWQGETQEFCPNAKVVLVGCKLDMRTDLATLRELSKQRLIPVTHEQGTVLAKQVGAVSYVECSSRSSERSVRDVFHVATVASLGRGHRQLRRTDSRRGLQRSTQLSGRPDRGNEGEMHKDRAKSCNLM

Target: Rnd2 bait construct lacking the C-terminal membrane-binding (CAAX) motif (UniProt Q9QYM5)
Experiment: two-hybrid; Rnd2 bait lacking the CAAX motif against prey clones of an embryonic mouse (E15.5) cortex library; complementation tests after prey plasmid recovery; growth on selection medium lacking histidine and adenine

| binding | Binder |
| --- | --- |
| binds | Bacurd2 C-terminal aa242-316 fragment, two-hybrid prey (domain or fragment, UniProt O70479 242-316) PEARIYEETLNVLLYETPRVPDNSLLEATSRSRSQASPSEDEDTFELRDRVRRIHVKRYSTYDDRQLGHQSTHRD |
| binds | full-length Bacurd2 (BTB-domain containing adaptor for Cul3-mediated RhoA degradation 2), two-hybrid prey (protein, UniProt O70479 1-316) MSGDTCLCPASGAKPKISGFKGGGLGNKYVQLNVGGSLYYTTVRALTRHDTMLKAMFSGRMEVLTDKEGWILIDRCGKHFGTILNYLRDDTITLPQSRQEIQELMAEAKYYLIQGLVSTCQTALQDKKDSYQPVCNIPIITSLREEDRLIESSTKPVVKLLYNRSNNKYSYTSNSDDHLLKNIELFDKLSLRFNGRVLFIKDVIGDEICCWSFYGQGRKLAEVCCTSIVYATEKKQTKVEFPEARIYEETLNVLLYETPRVPDNSLLEATSRSRSQASPSEDEDTFELRDRVRRIHVKRYSTYDDRQLGHQSTHRD |
